Record: PubChem BioAssay AID504774 (Drosophila RNAi Screening Center, 2011)

Aim: 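Fly genes whose loss alters survival after alkylation damage to DNA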 (primary screen)
Cells: Drosophila Kc167 cells
Knock-down reagent: long dsRNA against Drosophila genes, about 0.25 µg dsRNA per well
Timing: about 6 days: 3 days knock-down, then 3 days with or without MMS
Treatment: methyl methanesulphonate 0.004% (w/v) for 3 days after knock-down
Measured: 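ATP-dependent luminescence as a measure of live cells in MMS-exposed wells, quantile normalised within each plate, with replicate values also given as a mean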
Reading the numbers: mean viability with MMS: higher = more surviving cells after MMS
The screen tested about 23,000 reagents; below is an unselected part of those that have a named target and a result. 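Values are quantile-normalised luminescence on an arbitrary scale; higher means more cells surviving MMS.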 Not all columns of the deposit are shown. Reagent sequences are not shown.

{"target gene": "Gycalpha99B", "dsRNA": "DRSC16690", "mean viability with MMS": 3.53e6}
{"target gene": "TwdlQ", "dsRNA": "DRSC14745", "mean viability with MMS": 3.23e6}
{"target gene": "TwdlQ", "dsRNA": "DRSC23107", "mean viability with MMS": 3.49e6}
{"target gene": "CG30008", "dsRNA": "DRSC21576", "mean viability with MMS": 3.43e6}
{"target gene": "Nsun5", "dsRNA": "DRSC15835", "mean viability with MMS": 3.49e6}
{"target gene": "O-fut1", "dsRNA": "DRSC06138", "mean viability with MMS": 3.68e6}
{"target gene": "Cyp4ad1", "dsRNA": "DRSC07369", "mean viability with MMS": 3.65e6}
{"target gene": "ave", "dsRNA": "DRSC05502", "mean viability with MMS": 3.70e6}
{"target gene": "mmd", "dsRNA": "DRSC19672", "mean viability with MMS": 3.36e6}
{"target gene": "mmd", "dsRNA": "DRSC19673", "mean viability with MMS": 3.52e6}
{"target gene": "mmd", "dsRNA": "DRSC20161", "mean viability with MMS": 3.53e6}
{"target gene": "mmd", "dsRNA": "DRSC23042", "mean viability with MMS": 3.39e6}
{"target gene": "smo", "dsRNA": "DRSC00837", "mean viability with MMS": 3.63e6}
{"target gene": "CG1835", "dsRNA": "DRSC20560", "mean viability with MMS": 3.53e6}
{"target gene": "sax", "dsRNA": "DRSC07675", "mean viability with MMS": 3.75e6}
{"target gene": "CG9396", "dsRNA": "DRSC16487", "mean viability with MMS": 3.76e6}
{"target gene": "Son", "dsRNA": "DRSC16400", "mean viability with MMS": 3.70e6}
{"target gene": "IFT54", "dsRNA": "DRSC15469", "mean viability with MMS": 3.75e6}
{"target gene": "CG31176", "dsRNA": "DRSC15038", "mean viability with MMS": 3.62e6}
{"target gene": "CG31176", "dsRNA": "DRSC16021", "mean viability with MMS": 3.73e6}
{"target gene": "Pih1D1", "dsRNA": "DRSC02897", "mean viability with MMS": 3.64e6}
{"target gene": "jb", "dsRNA": "DRSC20531", "mean viability with MMS": 3.56e6}
{"target gene": "CG32812", "dsRNA": "DRSC18478", "mean viability with MMS": 3.61e6}
{"target gene": "Efr", "dsRNA": "DRSC18322", "mean viability with MMS": 3.43e6}

Laid out differently: 4 of the entries above.
target gene | dsRNA | mean viability with MMS
mmd | DRSC19673 | 3.52e6
mmd | DRSC20161 | 3.53e6
mmd | DRSC23042 | 3.39e6
smo | DRSC00837 | 3.63e6

Additional reagents follow.
{"target gene": "CG9394", "dsRNA": "DRSC04550", "mean viability with MMS": 3.31e6}
{"target gene": "CR14798", "dsRNA": "DRSC17956", "mean viability with MMS": 3.52e6}
{"target gene": "Gcat", "dsRNA": "DRSC09719", "mean viability with MMS": 3.73e6}
{"target gene": "Pkd2", "dsRNA": "DRSC02962", "mean viability with MMS": 3.81e6}
{"target gene": "CG16798", "dsRNA": "DRSC02517", "mean viability with MMS": 3.59e6}
{"target gene": "Rbf", "dsRNA": "DRSC18704", "mean viability with MMS": 3.27e6}
{"target gene": "CG1582", "dsRNA": "DRSC19732", "mean viability with MMS": 3.73e6}
{"target gene": "CG30099", "dsRNA": "DRSC07039", "mean viability with MMS": 3.61e6}
{"target gene": "mRpL38", "dsRNA": "DRSC19734", "mean viability with MMS": 3.82e6}
{"target gene": "l(2)k14505", "dsRNA": "DRSC03106", "mean viability with MMS": 3.56e6}
{"target gene": "Afti", "dsRNA": "DRSC16440", "mean viability with MMS": 3.56e6}
{"target gene": "CG10748", "dsRNA": "DRSC09797", "mean viability with MMS": 3.62e6}
{"target gene": "Or98a", "dsRNA": "DRSC16774", "mean viability with MMS": 3.64e6}
{"target gene": "Ir21a", "dsRNA": "DRSC00528", "mean viability with MMS": 3.44e6}
{"target gene": "CG32603", "dsRNA": "DRSC19409", "mean viability with MMS": 3.62e6}
{"target gene": "CG32603", "dsRNA": "DRSC21586", "mean viability with MMS": 3.64e6}
{"target gene": "kek6", "dsRNA": "DRSC15299", "mean viability with MMS": 3.50e6}
{"target gene": "Pi3K68D", "dsRNA": "DRSC11253", "mean viability with MMS": 3.49e6}
{"target gene": "lobo", "dsRNA": "DRSC14662", "mean viability with MMS": 3.55e6}
{"target gene": "lobo", "dsRNA": "DRSC14663", "mean viability with MMS": 3.58e6}
{"target gene": "CG8066", "dsRNA": "DRSC16374", "mean viability with MMS": 3.51e6}
